Test results: paper PMC3760890
No constants are given. Whether binding was seen depends on the method and setting. Binding can be weak; no strength is given. Sequences can lack the tags named with a protein.

B1: FLN1 (Fructokinase-Like Protein1), yeast two-hybrid fusion (protein, UniProt Q9M394 1-471)
chain: MASLLIFPHLHHFDSSLDRREVLVVRHSQASRRFLTPKASINGSGITNGAAAETTSKPSRKGRKKKQTSTVIEKDNTETDPELNPELADYDDGIEFPYDDPPLVCCFGAVQKEFVPVVRVHDNPMHPDMYSQWKMLQWDPPEFGRAPGGPPSNVAISHVRLGGRAAFMGKVGEDDFGDELVLMMNQERVQTRAVKFDENSKTACTRVKIKFKDGKMMAETVKEPPEDSLFASELNLAVLKEARIFHFNSEVLTSPTMQSTLFTAIQWSKKFGGLIFFDLNLPLPLWRSRNETRKLIKKAWNEANIIEVSQQELEFLLDEDYYERRRNYTPQYFAEDFDQTKNRRDYYHYTPEEIKSLWHDKLKLLVVTDGTLRLHYYTPTFDGVVIGTEDVLITPFTCDRTGSGDAVVAGIMRKLTTCPEMFEDQDVMERQLRFAVAAGIIAQWTIGAVRGFPTESATQNLKEQVYVPSMW
B2: thioredoxin z (TRX z), yeast two-hybrid fusion (protein, UniProt Q9M7X9 1-183)
chain: MALVQSRTFPHLNTPLSPILSSLHAPSSLFIRREIRPVAAPFSSSTAGNLPFSPLTRPRKLLCPPPRGKFVREDYLVKKLSAQELQELVKGDRKVPLIVDFYATWCGPCILMAQELEMLAVEYESNAIIVKVDTDDEYEFARDMQVRGLPTLFFISPDPSKDAIRTEGLIPLQMMHDIIDNEM
B3: pTAC12, yeast two-hybrid fusion (protein, UniProt F4IHY7 1-527)
chain: MASISTTTWLYRGQVCTDSGKSSNCIVQRRVKCGFPLKTLHAGITSRDRSLRHCIKCKKEDGDGDVSEGSKKSEEGFEYVTVERHPYHSYMDSTSGKLEPASGARASIPGEDYWPEGTSSRVRAARAPQPAGESSSFPSYGKNPGSRRKKNRKATEENVTVETNDEVSDSEDSSEEEENDSSDGFVTYKNEFEREEEETGFELDKKLGRPHPFIDPTKKKQIEKTLTSDESWWNWRKPEKEQWSRWQRRRPDVETVFLKAMAETGQVKLYGEEPTLTETSLYRARRHLFKEERLQAERERLAKEGPMAFYSEWVKAWKRDTSREAVQKHFEETGEDENTQLIEMFSHQTDREYRIMMGTDIRIKRDPLAMRMREDQIKQIWGGDPVYPTINYIQDPNAVMDFRGPDFHEPTPNMLSYLKENGKVISREMHEALLTKEKTEQLEVPDMDDAMAQAVDIGENDDDEDDADVEKDDEKVPRNWSVLKETPELRTAKPKPKKEGRMSLDEAVDDAENLTDFLMDFEEETDP
B4: pTAC14, yeast two-hybrid fusion (protein, UniProt Q84JF5 1-483)
chain: MASSVSLQFLTNTFISKPQGFCNGIVSAPRPRSNLLRDRQNGVRPIKVASIETQPFPLFQSPASEESSSSELETADPDFYKIGYVRSVRAYGVEFKEGPDGFGVYASKDIEPRRRARVIMEIPLELMITIRQKHPWMFFPDIVPIGHPIFDIINSTDPEIDWDIRLACLLLFSFDRDDHFWRLYGDFLPAADECSSLLLATEEDLAELQDPDLVSTIRQQQKRILDFWEKNWHSGVPLKIKRLAEDPERFIWAVSMAQTRCISMQTRVGALVQELNMMIPYADMLNHSFEPNCFLHWRPKDRMLEVMSNAGQDIKKGEEMTINYMPGQKNNMLMERYGFSTPVNPWDAIKFSGDSRIHLNSFLSVFNIYGLPEEYYHDSELSRGDTFVDGAVIAAARTLPTWSDIDLPPIPSAERKAVKELQDECRKMLAEYPTTAEQDQKLLDSMSEARTTFATAVKYRMHRKMFIGKIIKALDIYQERLLY

What follows are binders tested against FLN2 (Fructokinase-Like Protein2), yeast two-hybrid fusion (Arabidopsis thaliana) (assay: two-hybrid; screen: FLN2 fused to GAL4 BD as bait against a pool of the thirty-five reported TAC components fused to GAL4 AD; blue clones on SD medium lacking Trp, Leu, His and Ade with X-alpha-gal, identified by PCR and sequencing).
In the case of B1, the binding is reported as “binds”. In the case of B2, the binding is reported as “binds”.

The binders below were run against FLN2 (Fructokinase-Like Protein2), yeast two-hybrid fusion (Arabidopsis thaliana) (assay: two-hybrid; pairwise tests in yeast, pGBKT7 (BD) and pGADT7 (AD) fusions).
With B1 the binding was “binds”. B2 was tested, and the binding was “binds”. With B3 the binding was “no binding”. In the case of B4, the binding is reported as “no binding”.
